Data published in the supplement of paper PMC12819154, “High-throughput peptide-centric local stability assay extends protein–ligand identification to membrane proteins, tissues and bacteria” (Nature Structural & Molecular Biology, 2025).
The list shows a part of the results. Most values lie at the level of the controls, where differences are scatter.

Chains of the proteins cited; added tags and fusions are not shown. Lines headed by an entry give the natural chain unless they say otherwise; changes in a name come on top.
UniProt Q96NT0: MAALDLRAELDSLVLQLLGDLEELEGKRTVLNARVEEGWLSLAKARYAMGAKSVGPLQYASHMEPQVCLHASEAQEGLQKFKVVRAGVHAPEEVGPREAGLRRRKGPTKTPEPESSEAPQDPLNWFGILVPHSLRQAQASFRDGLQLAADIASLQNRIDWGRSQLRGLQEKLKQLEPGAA
UniProt Q96HJ3: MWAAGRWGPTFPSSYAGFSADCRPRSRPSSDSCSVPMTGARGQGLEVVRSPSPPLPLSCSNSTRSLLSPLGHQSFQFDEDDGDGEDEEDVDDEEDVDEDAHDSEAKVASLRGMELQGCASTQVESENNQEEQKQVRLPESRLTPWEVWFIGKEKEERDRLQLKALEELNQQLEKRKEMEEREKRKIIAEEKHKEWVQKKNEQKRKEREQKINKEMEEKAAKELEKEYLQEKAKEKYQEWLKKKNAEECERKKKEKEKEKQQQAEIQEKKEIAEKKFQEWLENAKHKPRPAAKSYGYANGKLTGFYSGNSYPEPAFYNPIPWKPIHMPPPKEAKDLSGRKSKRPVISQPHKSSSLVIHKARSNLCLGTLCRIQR
UniProt Q96MY1: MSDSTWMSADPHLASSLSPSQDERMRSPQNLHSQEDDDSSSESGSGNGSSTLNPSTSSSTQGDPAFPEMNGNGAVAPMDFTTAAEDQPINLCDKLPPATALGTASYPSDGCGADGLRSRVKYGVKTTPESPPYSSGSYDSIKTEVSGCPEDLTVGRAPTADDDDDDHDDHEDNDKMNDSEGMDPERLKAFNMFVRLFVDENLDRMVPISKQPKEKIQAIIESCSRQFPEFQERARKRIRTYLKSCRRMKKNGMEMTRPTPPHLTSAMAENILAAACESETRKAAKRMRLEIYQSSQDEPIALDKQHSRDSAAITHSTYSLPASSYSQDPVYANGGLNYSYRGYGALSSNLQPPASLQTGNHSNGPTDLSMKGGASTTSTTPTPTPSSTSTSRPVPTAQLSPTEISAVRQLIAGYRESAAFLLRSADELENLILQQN
UniProt Q96FZ2: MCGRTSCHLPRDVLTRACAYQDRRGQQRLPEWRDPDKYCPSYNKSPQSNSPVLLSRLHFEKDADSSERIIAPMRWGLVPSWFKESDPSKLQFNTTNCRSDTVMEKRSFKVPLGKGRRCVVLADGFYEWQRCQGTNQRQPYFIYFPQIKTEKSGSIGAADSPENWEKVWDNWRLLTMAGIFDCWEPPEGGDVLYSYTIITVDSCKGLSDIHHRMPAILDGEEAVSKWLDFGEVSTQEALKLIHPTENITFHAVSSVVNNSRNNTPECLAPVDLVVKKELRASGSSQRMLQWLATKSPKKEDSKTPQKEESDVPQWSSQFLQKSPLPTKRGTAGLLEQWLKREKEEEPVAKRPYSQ
UniProt Q96HT8: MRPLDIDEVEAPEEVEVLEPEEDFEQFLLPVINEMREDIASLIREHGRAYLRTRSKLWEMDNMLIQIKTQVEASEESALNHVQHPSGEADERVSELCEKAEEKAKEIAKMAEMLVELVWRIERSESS
UniProt Q96IR2: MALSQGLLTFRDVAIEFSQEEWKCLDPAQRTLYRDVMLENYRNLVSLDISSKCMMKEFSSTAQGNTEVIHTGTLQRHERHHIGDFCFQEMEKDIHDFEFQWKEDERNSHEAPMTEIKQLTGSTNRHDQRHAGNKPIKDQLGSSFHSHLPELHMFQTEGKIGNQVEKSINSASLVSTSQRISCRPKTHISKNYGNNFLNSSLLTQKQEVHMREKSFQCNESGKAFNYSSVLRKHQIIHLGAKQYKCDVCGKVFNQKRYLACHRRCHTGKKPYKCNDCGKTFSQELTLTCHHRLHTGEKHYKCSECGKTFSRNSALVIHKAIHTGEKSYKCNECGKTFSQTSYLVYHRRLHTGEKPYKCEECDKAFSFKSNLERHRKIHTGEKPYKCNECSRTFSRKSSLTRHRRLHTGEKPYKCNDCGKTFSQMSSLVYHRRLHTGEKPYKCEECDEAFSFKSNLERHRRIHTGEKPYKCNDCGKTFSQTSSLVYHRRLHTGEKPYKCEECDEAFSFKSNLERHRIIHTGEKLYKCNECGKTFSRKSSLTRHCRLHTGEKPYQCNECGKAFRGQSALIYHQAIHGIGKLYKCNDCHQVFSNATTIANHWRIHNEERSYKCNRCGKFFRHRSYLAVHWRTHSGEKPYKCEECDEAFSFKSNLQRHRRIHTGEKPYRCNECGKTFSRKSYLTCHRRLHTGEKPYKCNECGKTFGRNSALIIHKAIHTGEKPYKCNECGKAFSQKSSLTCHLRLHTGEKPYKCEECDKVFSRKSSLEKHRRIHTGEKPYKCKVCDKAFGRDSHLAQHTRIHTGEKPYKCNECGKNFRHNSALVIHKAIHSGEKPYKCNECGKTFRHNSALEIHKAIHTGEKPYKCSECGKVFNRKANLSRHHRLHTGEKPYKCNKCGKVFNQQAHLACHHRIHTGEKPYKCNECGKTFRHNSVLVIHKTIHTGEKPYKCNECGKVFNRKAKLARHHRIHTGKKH
UniProt Q96LW9: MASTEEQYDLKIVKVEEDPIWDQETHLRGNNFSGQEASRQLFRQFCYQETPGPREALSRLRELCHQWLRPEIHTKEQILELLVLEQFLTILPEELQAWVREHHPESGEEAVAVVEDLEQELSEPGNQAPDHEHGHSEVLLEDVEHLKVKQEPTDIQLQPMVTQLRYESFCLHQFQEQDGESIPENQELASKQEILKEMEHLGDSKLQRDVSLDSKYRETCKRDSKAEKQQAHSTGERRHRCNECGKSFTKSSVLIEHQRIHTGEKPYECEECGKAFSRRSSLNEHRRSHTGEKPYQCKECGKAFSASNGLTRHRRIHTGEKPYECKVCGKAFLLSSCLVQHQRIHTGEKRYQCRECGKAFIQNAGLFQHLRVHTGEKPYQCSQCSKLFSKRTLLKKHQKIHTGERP
UniProt Q96QP1: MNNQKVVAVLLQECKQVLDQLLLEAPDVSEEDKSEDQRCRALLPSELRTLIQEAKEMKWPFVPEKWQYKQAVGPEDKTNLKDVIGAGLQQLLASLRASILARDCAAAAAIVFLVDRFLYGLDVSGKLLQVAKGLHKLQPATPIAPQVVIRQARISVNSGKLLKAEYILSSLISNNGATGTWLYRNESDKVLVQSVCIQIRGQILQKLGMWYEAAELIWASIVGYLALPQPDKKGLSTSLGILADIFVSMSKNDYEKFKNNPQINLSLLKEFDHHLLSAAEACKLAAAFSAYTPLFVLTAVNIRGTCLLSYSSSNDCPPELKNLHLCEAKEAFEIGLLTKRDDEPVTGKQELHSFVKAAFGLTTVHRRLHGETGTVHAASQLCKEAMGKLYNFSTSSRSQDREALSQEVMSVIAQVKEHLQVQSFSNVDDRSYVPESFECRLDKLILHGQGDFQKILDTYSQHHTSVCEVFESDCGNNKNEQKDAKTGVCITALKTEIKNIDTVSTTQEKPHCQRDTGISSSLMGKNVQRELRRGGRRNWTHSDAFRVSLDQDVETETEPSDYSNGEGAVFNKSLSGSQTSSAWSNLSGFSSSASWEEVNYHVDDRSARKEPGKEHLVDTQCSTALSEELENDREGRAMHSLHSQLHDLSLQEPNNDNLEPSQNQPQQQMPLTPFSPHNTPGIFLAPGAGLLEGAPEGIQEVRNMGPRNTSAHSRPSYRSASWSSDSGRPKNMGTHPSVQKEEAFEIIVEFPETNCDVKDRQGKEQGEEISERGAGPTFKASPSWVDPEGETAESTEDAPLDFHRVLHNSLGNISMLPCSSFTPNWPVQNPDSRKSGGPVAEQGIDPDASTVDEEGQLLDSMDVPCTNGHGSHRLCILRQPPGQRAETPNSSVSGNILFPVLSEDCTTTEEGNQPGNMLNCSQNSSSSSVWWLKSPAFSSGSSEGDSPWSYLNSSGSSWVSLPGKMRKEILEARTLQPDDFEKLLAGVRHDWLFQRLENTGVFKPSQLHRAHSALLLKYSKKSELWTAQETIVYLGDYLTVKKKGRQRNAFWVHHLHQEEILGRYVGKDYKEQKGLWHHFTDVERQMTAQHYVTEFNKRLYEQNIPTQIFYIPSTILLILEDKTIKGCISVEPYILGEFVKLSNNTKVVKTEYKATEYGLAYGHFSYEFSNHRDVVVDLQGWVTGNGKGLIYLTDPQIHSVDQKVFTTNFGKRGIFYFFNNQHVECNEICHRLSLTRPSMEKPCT
UniProt Q96M27: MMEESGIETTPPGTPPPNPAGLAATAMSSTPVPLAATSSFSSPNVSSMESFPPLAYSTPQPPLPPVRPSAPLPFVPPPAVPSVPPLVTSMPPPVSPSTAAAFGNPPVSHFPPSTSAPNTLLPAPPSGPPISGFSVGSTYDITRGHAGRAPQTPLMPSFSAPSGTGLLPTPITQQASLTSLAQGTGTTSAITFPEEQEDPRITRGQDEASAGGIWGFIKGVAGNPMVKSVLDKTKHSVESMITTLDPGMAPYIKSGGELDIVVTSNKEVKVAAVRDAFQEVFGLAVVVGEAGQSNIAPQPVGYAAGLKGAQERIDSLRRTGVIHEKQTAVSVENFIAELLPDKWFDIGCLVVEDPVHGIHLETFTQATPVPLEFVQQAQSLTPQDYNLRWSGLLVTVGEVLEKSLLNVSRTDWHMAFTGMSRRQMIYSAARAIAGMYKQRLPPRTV
UniProt Q96IZ5: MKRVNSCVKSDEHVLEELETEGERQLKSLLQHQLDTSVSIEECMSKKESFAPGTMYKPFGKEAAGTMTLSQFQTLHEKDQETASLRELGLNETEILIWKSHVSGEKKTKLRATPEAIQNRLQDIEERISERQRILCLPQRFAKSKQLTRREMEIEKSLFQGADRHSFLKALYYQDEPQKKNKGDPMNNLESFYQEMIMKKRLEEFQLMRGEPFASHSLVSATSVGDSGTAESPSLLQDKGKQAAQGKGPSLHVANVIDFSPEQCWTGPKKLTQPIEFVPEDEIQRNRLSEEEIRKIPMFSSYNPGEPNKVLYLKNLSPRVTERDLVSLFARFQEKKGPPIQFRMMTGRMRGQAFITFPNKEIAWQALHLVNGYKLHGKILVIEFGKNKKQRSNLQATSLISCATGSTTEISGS
UniProt Q96IZ6: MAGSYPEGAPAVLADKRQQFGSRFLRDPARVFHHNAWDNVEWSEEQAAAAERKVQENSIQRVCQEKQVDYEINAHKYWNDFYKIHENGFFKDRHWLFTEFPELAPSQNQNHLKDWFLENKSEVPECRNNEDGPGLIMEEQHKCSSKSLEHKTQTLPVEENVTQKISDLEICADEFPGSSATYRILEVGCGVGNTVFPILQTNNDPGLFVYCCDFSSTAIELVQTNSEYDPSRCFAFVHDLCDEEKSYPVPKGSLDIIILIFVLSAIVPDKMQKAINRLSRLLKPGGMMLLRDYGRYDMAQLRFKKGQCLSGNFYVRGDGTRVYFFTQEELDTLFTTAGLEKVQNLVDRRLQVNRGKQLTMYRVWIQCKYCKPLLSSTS
UniProt Q96M11: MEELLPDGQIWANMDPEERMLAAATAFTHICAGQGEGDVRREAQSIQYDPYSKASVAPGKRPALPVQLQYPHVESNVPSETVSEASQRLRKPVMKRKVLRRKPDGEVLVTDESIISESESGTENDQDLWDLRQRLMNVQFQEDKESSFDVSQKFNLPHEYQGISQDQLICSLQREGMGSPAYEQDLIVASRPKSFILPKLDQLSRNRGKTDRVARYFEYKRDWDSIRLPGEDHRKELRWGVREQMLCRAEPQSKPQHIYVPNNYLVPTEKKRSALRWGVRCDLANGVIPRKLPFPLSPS
UniProt Q96G21: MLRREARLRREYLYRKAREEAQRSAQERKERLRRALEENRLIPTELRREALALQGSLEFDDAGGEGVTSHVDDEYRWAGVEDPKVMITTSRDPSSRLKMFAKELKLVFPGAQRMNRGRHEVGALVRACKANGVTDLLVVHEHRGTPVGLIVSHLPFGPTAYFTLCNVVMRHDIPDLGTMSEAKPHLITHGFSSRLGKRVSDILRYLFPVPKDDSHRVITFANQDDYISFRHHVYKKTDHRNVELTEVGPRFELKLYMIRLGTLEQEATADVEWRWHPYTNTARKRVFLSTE
UniProt Q96K30: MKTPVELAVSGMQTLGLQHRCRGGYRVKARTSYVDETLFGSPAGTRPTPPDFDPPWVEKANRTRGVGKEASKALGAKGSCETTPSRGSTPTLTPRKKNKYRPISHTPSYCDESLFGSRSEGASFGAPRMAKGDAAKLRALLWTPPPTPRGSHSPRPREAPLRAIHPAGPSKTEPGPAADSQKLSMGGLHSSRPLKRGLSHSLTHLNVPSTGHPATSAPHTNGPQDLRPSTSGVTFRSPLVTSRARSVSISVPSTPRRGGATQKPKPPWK
UniProt Q96IZ7: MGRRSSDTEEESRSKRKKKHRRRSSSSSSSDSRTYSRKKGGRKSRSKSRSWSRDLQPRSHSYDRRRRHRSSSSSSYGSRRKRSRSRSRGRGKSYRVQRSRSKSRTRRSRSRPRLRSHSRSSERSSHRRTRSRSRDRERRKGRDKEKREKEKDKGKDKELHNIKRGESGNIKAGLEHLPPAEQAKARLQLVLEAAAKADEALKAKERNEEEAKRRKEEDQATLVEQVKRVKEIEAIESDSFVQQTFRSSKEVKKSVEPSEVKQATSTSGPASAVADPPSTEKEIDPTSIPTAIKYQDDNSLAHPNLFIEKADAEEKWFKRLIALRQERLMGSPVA

These targets were tested with Cc1nc(Nc2ncc(C(=O)Nc3c(C)cccc3Cl)s2)cc(N2CCN(CCO)CC2)n1 [dasatinib] (assay: log2 fold change of tryptic peptide abundance, ligand vs vehicle (limited proteolysis) (log2 ratio); higher = more trypsin-susceptible (destabilized)). Conditions: ligand concentration: 5 uM; sample: K562 cleared lysate.

| Target | log2 fold change |
| --- | --- |
| TRPM7 (peptide sequence: ATEGDNTEFGAFVGHR, peptide start residue: 1429) (UniProt Q96QT4) | -0.291 |
| CCDC115 (peptide sequence: VEEGWLSLAK, peptide start residue: 35) (UniProt Q96NT0) | 0.101 |
| CCDC43 (peptide sequence: EQDKLQR, peptide start residue: 193) (UniProt Q96MW1) | 0.272 |
| MRPL48 (peptide sequence: EHTEEDFK, peptide start residue: 188) (UniProt Q96GC5) | 0.215 |
| UniProt Q96IY4 (peptide sequence: VSGKEQAAK, peptide start residue: 163) | -0.00749 |
| UniProt Q96G04 (peptide sequence: CFLSELIK, peptide start residue: 72) | -0.0993 |
| NEDD4L (peptide sequence: NNIFEESYR, peptide start residue: 625) (UniProt Q96PU5) | 0.326 |
| UniProt Q96HJ3 (peptide sequence: ALEELNQQLEK, peptide start residue: 164) | -0.431 |
| UniProt Q96GY0 (peptide sequence: VSSSSSSLGNK, peptide start residue: 208) | 0.342 |
| UniProt Q96MY1 (peptide sequence: AFNMFVR, peptide start residue: 189) | 0.11 |
| UniProt Q96FZ2 (peptide sequence: ACAYQDR, peptide start residue: 17) | 0.281 |
| ITCH (peptide sequence: SYEQLKEK, peptide start residue: 882) (UniProt Q96J02) | -0.872 |
| CCDC138 (peptide sequence: LQCETAAQQK, peptide start residue: 191) (UniProt Q96M89) | -0.37 |
| CDK5RAP3 (peptide sequence: ILDLLKGTEASTK, peptide start residue: 71) (UniProt Q96JB5) | 0.734 |
| UniProt Q96H40 (peptide sequence: SSHLTTHK, peptide start residue: 273) | -0.0109 |
| UniProt Q96HT8 (peptide sequence: TQVEASEESALNHVQHPSGEADER, peptide start residue: 69) | 0.037 |
| ZNF845 (peptide sequence: HHIGDFCFQEMEK, peptide start residue: 80) (UniProt Q96IR2) | 0.241 |
| FMNL2 (peptide sequence: DDVHVCIMCLR, peptide start residue: 225) (UniProt Q96PY5) | 0.247 |
| UniProt Q96LW9 (peptide sequence: GNNFSGQEASR, peptide start residue: 29) | -0.412 |

| Target | log2 fold change |
| --- | --- |
| SLC38A2 (peptide sequence: SHYADVDPENQNFLLESNLGKK, peptide start residue: 39) (UniProt Q96QD8) | 0.0424 |
| VPS35 (peptide sequence: NYLLQCTR, peptide start residue: 151) (UniProt Q96QK1) | -0.317 |
| BOD1 (peptide sequence: LNHIFRPQIER, peptide start residue: 141) (UniProt Q96IK1) | -0.108 |
| ALPK1 (peptide sequence: SASWSSDSGRPK, peptide start residue: 719) (UniProt Q96QP1) | 0.281 |
| PRRC1 (peptide sequence: TDWHMAFTGMSR, peptide start residue: 410) (UniProt Q96M27) | 0.294 |
| RBM41 (peptide sequence: KLTQPIEFVPEDEIQR, peptide start residue: 270) (UniProt Q96IZ5) | -0.48 |
| ANKRD27 (peptide sequence: NADQAVPLHLACQQGHFQVVK, peptide start residue: 774) (UniProt Q96NW4) | 0.197 |
| METTL2A (peptide sequence: NNEDGPGLIMEEQHK, peptide start residue: 128) (UniProt Q96IZ6) | 0.363 |
| UniProt Q96J77 (peptide sequence: CGELKRK, peptide start residue: 57) | 0.326 |
| LRCH3 (peptide sequence: VAEITKEQR, peptide start residue: 339) (UniProt Q96II8) | -0.429 |
| UniProt Q96M11 (peptide sequence: CDLANGVIPR, peptide start residue: 281) | 0.284 |
| UniProt Q96HB5 (peptide sequence: RLHELEEQLR, peptide start residue: 156) | 0.195 |
| CAMKK2 (peptide sequence: AAPQDELGGR, peptide start residue: 14) (UniProt Q96RR4) | 0.369 |
| IMP4 (peptide sequence: YLFPVPK, peptide start residue: 205) (UniProt Q96G21) | -0.319 |
| UniProt Q96K30 (peptide sequence: YRPISHTPSYCDESLFGSR, peptide start residue: 100) | 0.04 |
| SENP8 (peptide sequence: QVAEKLEAFLGR, peptide start residue: 131) (UniProt Q96LD8) | -0.28 |
| UniProt Q96H22 (peptide sequence: GPGEDVDLFDMK, peptide start residue: 91) | -0.434 |
| RSRC1 (peptide sequence: LQLVLEAAAK, peptide start residue: 187) (UniProt Q96IZ7) | 0.115 |

Taken from the results shown (two entries):

| Target | log2 fold change |
| --- | --- |
| SLC38A2 (peptide sequence: SHYADVDPENQNFLLESNLGKK, peptide start residue: 39) (UniProt Q96QD8) | 0.0424 |
| VPS35 (peptide sequence: NYLLQCTR, peptide start residue: 151) (UniProt Q96QK1) | -0.317 |
